# EP3698805A1, “FRACTION OFZANTHOXYLUM PIPERITUM” (Mecox Curemed Co., Ltd., priority 2017, dated 2019)
# At least one compound was matched to its structure with a doubt left.
# What was measured:
# [1] = test system: IL-6, IL-17, IL-21 and IL-22; assay: inflammation-promoting cytokines in T cells and TH17 cells of the collagen-induced animal model (CIA); format: in vivo; settings: compared to CIA; FIG. 14
# IFN-γ in NK cells = assay: IFN-γ expression in NK cells of the collagen-induced animal model (CIA); format: in vivo; settings: compared to the collagen-induced animal model (CIA); FIG. 13
# [2] = test system: MMP-2, MMP-3, TIMP-1 and TIMP-2; assay: MIA-induced osteoarthritis animal model (biochemical indicators); format: in vivo; settings: FIG. 10
# BV-2 cells = assay: potassium current density in BV-2 microglia; format: cell-based; settings: FIG. 12
structure (smiles),measurement,setting,value
"C[C@@H]1O[C@@H](Oc2c(-c3ccc(O)c(O)c3)oc3cc(O)cc(O)c3c2=O)[C@H](O)[C@H](O)[C@H]1O [Quercitrin, quercetin-3-O-alpha-L-rhamnoside]",expression level of IL-6 secreted from T cells,[1],decreased
same,"expression levels of IL-17, IL-21 and IL-22 secreted from TH17 cells",[1],significantly reduced
same,expression level of IFN-γ in NK cells,IFN-γ in NK cells,significant reduction
same,"effect of treating osteoarthritis (changes in MMP-2, MMP-3, TIMP-1 and TIMP-2)",[2],excellent effect of treating osteoarthritis
same,potassium (K+) current density,BV-2 cells,increased
